Results taken from PubChem BioAssay AID2685 (National Center for Advancing Translational Sciences (NCATS), 2010).
The list shows a part of the results. Shown are side measurements of this screen, not its main read-out; they come without a call. Compounds called inactive in the main read-out are mostly missing here. The note in brackets gives the kind of curve behind each potency; many fits are weak.

Assay: qHTS Assay for Lipid Storage Modulators in Drosophila S3 Cells;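 on cell number change: cells counted by Cell Tracker Red CMTPX staining in the red channel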
Conditions: BODIPY lipid droplet fluorescence, 18-24 h; for cell number change: measured here: cell count max response, cells fed with added oleic acid
Outline: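 Laser-scanning cytometry quantifies lipid droplet accumulation (500–530 nm total intensity; droplet/cell object ratio) in oleic acid-fed (400 uM added) Drosophila S3 cells treated with a concentration series. 20 uM Triacsin C defined 100% inhibition.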

[1] = measured here: lipid fluorescence (Fed channel) AC50, cells fed with added oleic acid
[2] = measured here: cell number channel AC50, cells fed with added oleic acid

In the case of `O=C(CN1C(=O)NC2(CCCc3ccccc32)C1=O)c1ccc(F)cc1` (configuration not stated), the cell number change is reported as -1.94% and the AC50 [1] is reported as 29.1 µM [falling, single point].

With `Cn1c(CCN2CCOCC2)nc2cc(NC(=O)COc3ccc([N+](=O)[O-])cc3)ccc21` the cell number change was 15.6% and the AC50 [1] was 29.1 µM [rising, single point].

For `COC(=O)CC1C(=O)NCCN1C(=O)CSc1nc2cc(Cl)ccc2o1` (configuration not stated), the AC50 [2] was 0.116 µM [rising, single point] and the AC50 [1] was 0.103 µM [rising, single point].

In the case of `CC1=C(C(=O)O)N2C(=O)C(NC(=O)c3c(F)cccc3F)C2SC1` (configuration not stated), the cell number change is reported as 1.92% and the AC50 [1] is reported as 16.4 µM [rising, partial curve].

In the case of `CCc1noc(C)c1C(=O)NNC(=O)COc1cc(C)ccc1C`, the cell number change is reported as -18.1% and the AC50 [1] is reported as 0.00461 µM [rising, full curve, poor fit].

For `CCN(Cc1ccccc1)C(=O)CCS(=O)(=O)c1ccc2c(c1)n(C)c(=O)c(=O)n2C`, the cell number change was 29.1% and the AC50 [1] was 0.0259 µM [rising, full curve, poor fit].

In the case of `OCC[C@H]1C[C@@H](O)[C@H](O)[C@]2(Cc3ccccc3CO2)O1`, the cell number change is reported as -13.8%.

With `CCOc1ccc(N(CC(=O)NC2CCCCC2)C(=O)CCC(=O)Nc2nc(C)cs2)cc1` the cell number change was 2.17%.

With `COc1ccc(-c2noc(N3CCC(C(=O)NC(C)c4ccccc4)CC3)n2)cc1` (configuration not stated) the cell number change was 13.3% and the AC50 [1] was 23.1 µM [rising, single point].

For `COc1ccc(/C=C(/C#N)S(=O)(=O)c2ccc(C)cc2)cc1`, the cell number change was 44.4% and the AC50 [2] was 29.1 µM [rising, single point].

With `CCOC(=O)c1c(NC(=O)CSc2nccn2C)sc(C(=O)NC)c1C` the cell number change was -0.803% and the AC50 [2] was 0.58 µM [rising, full curve].

With `CCc1cc2c(NCC(=O)O)ncnc2s1` the cell number change was -80.8% and the AC50 [2] was 20.6 µM [falling, single point].

Compound `COc1ccc(N(CC(=O)NC2CCCC2)C(=O)Cn2nnc(-c3ccc(F)cc3)n2)cc1OC` has a cell number change of 3.63%.

In the case of `COc1ccc(OC)c(CN2CCN(C(=O)c3cccc(S(=O)(=O)Nc4ccccc4OC)c3)CC2)c1`, the cell number change is reported as 51% and the AC50 [2] is reported as 3.66 µM [rising, full curve].

With `COc1ccc(CCN=C(N)NS(=O)(=O)c2ccc3ccccc3c2)cc1` the cell number change was 34.2%, the AC50 [2] was 29.1 µM [rising, single point] and the AC50 [1] was 18.4 µM [rising, single point].

`O=C(COc1coc(CN2CCN(Cc3ccccc3)CC2)cc1=O)Nc1ccccc1` gave a cell number change of -8.24%.

For `Cc1ccc(/C=N/NC(=O)C(O)c2ccccc2)o1` (configuration not stated), the cell number change was 9.7% and the AC50 [1] was 0.0058 µM [falling, full curve].

`Cc1cc(C(=O)COC(=O)C2CC2)c(C)n1-c1ccc(F)cc1` showed a cell number change of -0.733%.

In the case of `O=C(NCC(F)(F)F)c1nn(Cc2ccccc2)c(=O)c2ccccc12`, the cell number change is reported as 8.87% and the AC50 [1] is reported as 2.91 µM [rising, full curve].

With `Cn1ccnc1SCC(=O)N1CCN(S(=O)(=O)c2ccccc2)CC1` the AC50 [2] was 0.103 µM [rising, single point].

For `Cc1ccc(NCc2nnc(SCC(=O)OC3CCCCC3)o2)c(C)c1`, the cell number change was 11.3% and the AC50 [1] was 0.231 µM [rising, full curve, poor fit].

With `COc1ccc(S(=O)(=O)N(CC(=O)NCc2ccco2)c2ccc(C)cc2)cc1OC` the cell number change was -6.05% and the AC50 [1] was 5.8 µM [falling, partial curve].

In the case of `Cc1noc(NS(=O)(=O)c2ccc(N/C=C/C(=O)c3cccnc3)cc2)c1C`, the cell number change is reported as 23.5% and the AC50 [1] is reported as 6.51 µM [falling, single point].

In the case of `COc1cccc(/C=N/Nc2cc(C)nc(-c3ccccc3O)n2)c1O`, the cell number change is reported as -55.7%, the AC50 [2] is reported as 20.6 µM [falling, single point] and the AC50 [1] is reported as 32.6 µM [falling, single point].

Work on `COc1ccc(C(=O)Nc2ccnn2C2CCN(C(=O)c3cccnc3)CC2)cc1` yielded a cell number change of -1.66%.

In the case of `Cn1nc(-c2ccccc2)cc1NC(=O)c1ccc(Cl)cc1`, the cell number change is reported as 8.92% and the AC50 [1] is reported as 3.26 µM [falling, single point].

For `CCCCN(C(=O)c1cc(=O)[nH]c2ccccc12)c1c(N)n(CCC)c(=O)[nH]c1=O`, the cell number change was 12.7%, the AC50 [2] was 0.00461 µM [falling, full curve, poor fit] and the AC50 [1] was 7.31 µM [falling, partial curve, poor fit].

With `O=C(NCc1ccccc1)Nc1cccn(Cc2c(F)cccc2Cl)c1=O` the AC50 [2] was 0.146 µM [falling, full curve, poor fit].

With `C=CCN1C(=NC(=O)CCC(=O)O)SC2CS(=O)(=O)CC21` (configuration not stated) the cell number change was 2.9% and the AC50 [1] was 6.51 µM [falling, single point].

`N#Cc1nc(-c2ccc(OCc3ccc(Cl)cc3)cc2)oc1N1CCOCC1` showed a cell number change of 11.3%.

In the case of `Cc1[nH][nH]c(=O)c1C=Nc1ccc(C(F)(F)F)cc1`, the cell number change is reported as 16.5%.

For `COc1ccc(NC(=O)CSc2nc3c(c(=O)n2-c2ccccc2OC)SCC3)cc1`, the cell number change was 12.8%, the AC50 [2] was 0.731 µM [rising, full curve] and the AC50 [1] was 5.8 µM [rising, partial curve, poor fit].

With `CCCCN(C(=O)C1CCCO1)c1c(N)n(CC(C)C)c(=O)[nH]c1=O` (configuration not stated) the cell number change was -6%.

For `CC(C)c1ccc(NC2CCCN(C(=O)CCc3cnn(C)c3)C2)cc1` (configuration not stated), the cell number change was -0.289% and the AC50 [1] was 16.4 µM [rising, partial curve].

With `O=C(Nc1ccccc1N1CCCCC1)c1ccc(OC(F)F)cc1` the cell number change was 2.56% and the AC50 [1] was 29.1 µM [falling, single point].

With `CCCCn1c(SCn2nnc3ccccc3c2=O)nc2cc(S(N)(=O)=O)ccc21` the AC50 [2] was 0.82 µM [rising, partial curve] and the AC50 [1] was 0.231 µM [rising, full curve, poor fit].

With `Cc1cccc(OCCCC(=O)NNC(=O)CCN2CCN(c3ccccc3)CC2)c1` the cell number change was 53.5% and the AC50 [2] was 18.4 µM [rising, single point].

With `CCn1c(=O)c2cc(C(=O)Nc3ccccc3OC)sc2c2ccccc21` the cell number change was 27.2%, the AC50 [2] was 0.326 µM [rising, full curve, poor fit] and the AC50 [1] was 0.259 µM [rising, partial curve, poor fit].

For `O=C(COC(=O)Cc1ccc(Br)cc1)NC12CC3CC(CC(C3)C1)C2`, the cell number change was -8.35% and the AC50 [1] was 5.17 µM [falling, full curve].
